PubChem BioAssay AID1259424 | University of Nebraska Medical Center, 2018

- Test: 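Find knockdowns that reproduce the expression shifts seen after KSR1 loss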 (primary screen)
- Cell system: human HCT116 colon cancer cells
- Knock-down reagent: siRNA pool against human genes, 50 nM
- Measurement: 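Log2 levels of six mRNAs (branched-DNA multiplex), adjusted by two reference genes and the non-targeting median, then scored against the average KSR1 knockdown pattern as Pearson r and euclidean distance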
- Reading the numbers: mean correlation with KSR1 profile and KSR1 correlation: higher = expression change more like KSR1 knockdown; mean distance from KSR1 profile: higher = expression change less like KSR1 knockdown
This is one part, drawn at random, of about 14,000 reagents tested. 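Higher correlation or smaller distance means closer resemblance to KSR1 loss; control wells, including KSR1 knockdowns, recur on many plates.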 Not given: the time to read-out.

| Gene | mean correlation with KSR1 profile | mean distance from KSR1 profile | KSR1 correlation, replicate 1 | KSR1 correlation, replicate 2 | KSR1 correlation, replicate 3 |
| --- | --- | --- | --- | --- | --- |
| CPA1 | -0.658 | 3.35 | -0.737 | -0.724 | 0.164 |
| CEPT1 | 0.0754 | 1.72 | 0.338 | -0.0835 | 0.017 |
| CRCP | 0.0477 | 1.49 | -0.661 | -0.416 | -0.033 |
| TUBE1 | -0.0417 | 1.78 | 0.00395 | -0.232 | -0.138 |
| PPP4R1L | 0.827 | 0.851 | 0.618 | 0.726 | 0.494 |
| DHRS12 | 0.678 | 1.33 | 0.734 | 0.754 | 0.585 |
| ELOVL7 | 0.423 | 1.52 | 0.533 | 0.543 | 0.299 |
| MCM3 | 0.204 | 1.06 | 0.261 | 0.108 | -0.213 |
| NOA1 | 0.492 | 1.35 | 0.277 | 0.53 | 0.509 |
| NPLOC4 | -0.713 | 2.17 | -0.552 | -0.515 | -0.587 |
| PCDHB15 | 0.0646 | 2.11 | 0.252 | 0.12 | -0.308 |
| CWC27 | -0.0585 | 1.95 | -0.0149 | -0.205 | -0.0247 |
| CEP44 | 0.592 | 1.24 | 0.317 | 0.693 | 0.605 |
| PAFAH1B2 | 0.185 | 3.19 | 0.118 | 0.164 | 0.196 |
| ZNF45 | 0.524 | 2.51 | 0.567 | 0.595 | 0.628 |
| KCTD9 | -0.237 | 2.26 | -0.349 | 0.253 | -0.61 |
| FOXO1 | 0.0357 | 2.39 | 0.162 | -0.0199 | 0.0408 |
| RPS2P45 | 0.497 | 1.23 | 0.487 | 0.281 | 0.643 |
| SPRR3 | -0.594 | 2.8 | -0.647 | -0.598 | -0.475 |
| HSD17B10 | -0.343 | 2.83 | -0.463 | -0.472 | -0.216 |
| HMGCLL1 | 0.0785 | 2.01 | -0.0175 | 0.158 | -0.0241 |
| CTNNA1 | -0.335 | 1.44 | 0.0713 | -0.27 | -0.823 |
| SLC67A1 | -0.22 | 1.8 | -0.0228 | -0.205 | 0.315 |
| ACACA | -0.175 | 3.81 | -0.0834 | -0.312 | -0.186 |
| LAMB1 | 0.294 | 1.58 | 0.289 | 0.254 | 0.197 |
| TAF1L | 0.523 | 1.3 | 0.687 | 0.581 | 0.223 |
| CYP2A7 | 0.218 | 1.72 | -0.000627 | 0.143 | 0.244 |
| OSMR | -0.518 | 1.82 | -0.581 | -0.548 | -0.405 |
| TTC27 | -0.131 | 2.91 | -0.237 | -0.092 | -0.0112 |
| ELP1 | 0.395 | 1.57 | 0.456 | 0.611 | 0.123 |
| LMAN1L | 0.0541 | 2.92 | 0.0911 | 0.316 | -0.348 |
| TNNI2 | 0.739 | 1.59 | 0.728 | 0.704 | 0.712 |
| PIGB | 0.389 | 2.96 | 0.375 | 0.508 | 0.35 |
| ITGAE | -0.0958 | 1.78 | -0.0301 | 0.164 | -0.183 |
| BRIP1 | -0.293 | 1.93 | -0.409 | -0.348 | -0.00921 |
| CTSH | 0.155 | 2.69 | -0.0906 | 0.29 | 0.275 |
| GGCX | 0.474 | 1.98 | 0.506 | 0.396 | 0.431 |
| XRCC6 | 0.0341 | 1.46 | 0.27 | -0.225 | -0.556 |
| CR1L | -0.362 | 3.01 | -0.447 | -0.485 | -0.335 |
| CTR9 | -0.888 | 2.58 | -0.862 | -0.933 | -0.721 |
| PFN1 | -0.381 | 2 | -0.553 | -0.621 | -0.326 |
| PCBP1 | -0.551 | 2.21 | -0.387 | -0.232 | -0.711 |
| GPR146 | 0.571 | 2.09 | 0.569 | 0.589 | 0.51 |
| PPFIA4 | 0.304 | 1.42 | 0.0254 | 0.424 | 0.116 |
| ARSJ | 0.752 | 1.61 | 0.789 | 0.719 | 0.799 |
| IGF2BP3 | 0.251 | 2.21 | 0.0232 | 0.358 | 0.228 |
| ARL4A | -0.156 | 2 | -0.165 | -0.00414 | -0.237 |
| MLC1 | 0.591 | 1.53 | 0.773 | 0.227 | 0.556 |
| CHMP4A | -0.0477 | 1.11 | -0.852 | -0.63 | -0.0954 |
| LMNB2 | -0.167 | 1.18 | 0.303 | -0.269 | -0.268 |
| ATP6AP1 | 0.306 | 3.97 | 0.329 | 0.117 | 0.282 |
| OGFR | -0.0634 | 1.81 | 0.0446 | 0.256 | -0.274 |
| IER3IP1 | -0.0913 | 2.43 | -0.0703 | 0.108 | 0.0869 |
| LRFN4 | -0.393 | 2.26 | -0.533 | -0.412 | -0.339 |
| PRKCA | 0.406 | 2.43 | 0.637 | 0.512 | -0.129 |
| KRTAP9-2 | 0.334 | 2.98 | 0.171 | 0.305 | 0.455 |
| SH3GLB1 | -0.632 | 2.19 | -0.535 | -0.464 | -0.135 |
| SLIT1 | -0.461 | 2.39 | -0.634 | -0.306 | -0.322 |
| CP | 0.00431 | 3.03 | 0.0737 | -0.0952 | -0.196 |
| ABHD16A | -0.241 | 2.48 | -0.237 | -0.4 | 0.169 |
| OR5K1 | -0.577 | 1.95 | -0.241 | -0.692 | -0.685 |
| COL4A2 | -0.487 | 2.83 | -0.227 | -0.507 | -0.682 |
| LRPAP1 | 0.466 | 0.997 | 0.554 | 0.52 | 0.512 |

4 neighbouring reagents from above:
| Gene | mean correlation with KSR1 profile | mean distance from KSR1 profile | KSR1 correlation, replicate 1 | KSR1 correlation, replicate 2 | KSR1 correlation, replicate 3 |
| --- | --- | --- | --- | --- | --- |
| CHMP4A | -0.0477 | 1.11 | -0.852 | -0.63 | -0.0954 |
| LMNB2 | -0.167 | 1.18 | 0.303 | -0.269 | -0.268 |
| ATP6AP1 | 0.306 | 3.97 | 0.329 | 0.117 | 0.282 |
| OGFR | -0.0634 | 1.81 | 0.0446 | 0.256 | -0.274 |
